Assay results as given in the supplement of paper PMC4604168 (melanoma cell lines).
Some of the results follow. Single values are uncertain, as repeats are few or missing.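 Cells were imaged in 1,536-well plates, and nuclei stained with an antibody against cleaved PARP were counted against all DNA-stained nuclei to give the apoptosis fraction. Screening doses were chosen to leave most cells alive, and resting and induced cleaved-PARP levels differ strongly between cell lines.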

Experiments:
Test in all cases: cleaved PARP positive nuclei fraction relative to DMSO control; melanoma cells; higher = more apoptosis
Conditions in all cases: library dose: low library concentration; 72 h
501Mel = test system: 501Mel
A101D = test system: A101D
A2058 = test system: A2058
A375 = test system: A375
C32 = test system: C32
CBRC008 = test system: CBRC008 (line from a melanoma biopsy)
CBRC013 = test system: CBRC013 (line from a melanoma biopsy)
CBRC014 = test system: CBRC014 (line from a melanoma biopsy)
CBRC016 = test system: CBRC016 (line from a melanoma biopsy)
CBRC017 = test system: CBRC017 (line from a melanoma biopsy)
COLO792 = test system: COLO792
COLO800 = test system: COLO800
COLO829 = test system: COLO829
G361 = test system: G361
IPC-298 = test system: IPC-298
IST-MEL1 = test system: IST-MEL1
LB2518-MEL = test system: LB2518-MEL
LOXIMVI = test system: LOXIMVI
MEL-HO = test system: MEL-HO

SMILES | cleaved PARP positive nuclei fraction (501Mel) | cleaved PARP positive nuclei fraction (A101D) | cleaved PARP positive nuclei fraction (A2058) | cleaved PARP positive nuclei fraction (A375) | cleaved PARP positive nuclei fraction (C32) | cleaved PARP positive nuclei fraction (CBRC008) | cleaved PARP positive nuclei fraction (CBRC013) | cleaved PARP positive nuclei fraction (CBRC014) | cleaved PARP positive nuclei fraction (CBRC016) | cleaved PARP positive nuclei fraction (CBRC017) | cleaved PARP positive nuclei fraction (COLO792) | cleaved PARP positive nuclei fraction (COLO800) | cleaved PARP positive nuclei fraction (COLO829) | cleaved PARP positive nuclei fraction (G361) | cleaved PARP positive nuclei fraction (IPC-298) | cleaved PARP positive nuclei fraction (IST-MEL1) | cleaved PARP positive nuclei fraction (LB2518-MEL) | cleaved PARP positive nuclei fraction (LOXIMVI) | cleaved PARP positive nuclei fraction (MEL-HO)
O=C(O)[C@@H]1[O][Sb](=[O])([O][Sb]2(=[O])[O][C@H]([C@H](O)CO)[C@H](O)[C@H](C(=O)O)[O]2)[O][C@H]([C@H](O)CO)[C@@H]1O (some centres undefined) [stibogluconate] + O=C(Nc1cccc(Cl)c1)Nc1ncc(CCNc2ncnc3ccsc23)s1 [SNS314] (first compound 2 µM, partner dose 0.0008 µM) | 164% | 78.6% | 83.8% | 21.4% | 281% | 155% | 165% | 29.3% | 96% | 99.2% | 75.1% | 121% | 95.4% | 146% | 44.4% | 96.6% | 45.9% | 24.4% | 136%
Cn1c(=O)n(-c2ccc(C(C)(C)C#N)cc2)c2c3cc(-c4cnc5ccccc5c4)ccc3ncc21 + Cc1ccc(NC(=O)c2cccc(N(C)C)c2)cc1NC(=O)c1ccc(O)cc1 [ZM336372] (first compound 0.004 µM, partner dose 2 µM) | 79.9% | 154% | 100% | 117% | 124% | 22.9% | 59.8% | 174% | 136% | 54.3% | 106% | 72.5% | 76.2% | 299% | 233% | 108% | 106% | 58.9% | 166%
O=C(O)[C@@H]1[O][Sb](=[O])([O][Sb]2(=[O])[O][C@H]([C@H](O)CO)[C@H](O)[C@H](C(=O)O)[O]2)[O][C@H]([C@H](O)CO)[C@@H]1O (some centres undefined) [stibogluconate] + CC(C)(C)c1cnc(CSc2cnc(NC(=O)C3CCNCC3)s2)o1 [SNS-032] (first compound 2 µM, partner dose 0.01 µM) | 84.8% | 82.2% | 91.4% | 116% | 99.2% | 71.4% | 223% | 64.8% | 154% | 70.7% | 59.1% | 106% | 55.9% | 68.4% | 166% | 26.5% | 40.5% | 20.2% | 54.7%
C[C@@H](Oc1cc(-c2cnn(C3CCNCC3)c2)cnc1N)c1c(Cl)ccc(F)c1Cl [Crizotinib] + NC(=O)Nc1cc(-c2cccc(F)c2)sc1C(=O)N[C@H]1CCCNC1 [AZD7762] (first compound 0.2 µM, partner dose 0.02 µM) | 183% | 415% | 50.4% | 109% | 142% | 47.6% | 90.7% | 94.9% | 94.4% | 90.5% | 93.8% | 117% | 73.8% | 72.4% | 92.9% | 54.1% | 36.1% | 74% | 67.9%
Cc1cc(Nc2cc(N3CCN(C)CC3)nc(/C=C/c3ccccc3)n2)n[nH]1 + CC1(C)NC(=O)N(c2ccc([N+](=O)[O-])c(C(F)(F)F)c2)C1=O [nilutamide] (first compound 0.04 µM, partner dose 1 µM) | 107% | 151% | 102% | 33.6% | 130% | 70% | 162% | 83.9% | 51.6% | 83.5% | 124% | 178% | 82% | 111% | 62.1% | 125% | 128% | 40.1% | 169%
C=C(c1ccc(C(=O)O)cc1)c1cc2c(cc1C)C(C)(C)CCC2(C)C [Bexarotene] + Cc1ccc(NC(=O)c2cccc(N(C)C)c2)cc1NC(=O)c1ccc(O)cc1 [ZM336372] (first compound 2 µM, partner dose 2 µM) | 137% | 80.9% | 86.2% | 72.3% | 171% | 50.5% | 81.6% | 151% | 131% | 165% | 88.3% | 72.3% | 134% | 110% | 74.4% | 110% | 147% | 225% | 173%
O=C(O)[C@@H]1[O][Sb](=[O])([O][Sb]2(=[O])[O][C@H]([C@H](O)CO)[C@H](O)[C@H](C(=O)O)[O]2)[O][C@H]([C@H](O)CO)[C@@H]1O (some centres undefined) [stibogluconate] + C=CCn1c(=O)c2cnc(Nc3ccc(N4CCN(C)CC4)cc3)nc2n1-c1cccc(C(C)(C)O)n1 [MK1775] (first compound 2 µM, partner dose 0.02 µM) | 143% | 50.9% | 60.2% | 203% | 90.5% | 227% | 101% | 116% | 178% | 99.9% | 63.6% | 84.1% | 88.2% | 90.5% | 58.1% | 180% | 50.4% | 37.4% | 27.5%
Nc1nc(F)nc2c1ncn2[C@@H]1O[C@H](CO)[C@@H](O)[C@@H]1O [fludarabine] + CO[C@@H]1[C@H](N(C)C(=O)c2ccccc2)C[C@H]2O[C@]1(C)n1c3ccccc3c3c4c(c5c6ccccc6n2c5c31)C(=O)NC4 [Midostaurin] (first compound 0.2 µM, partner dose 0.08 µM) | 2400% | 96.6% | 43.5% | 6200% | 88.6% | 82.3% | 620% | 96.2% | 152% | 102% | 136% | 83.8% | 147% | 105% | 44.5% | 118% | 39.3% | 266% | 317%
CCCS(=O)(=O)Nc1ccc(F)c(C(=O)c2c[nH]c3ncc(Cl)cc23)c1F + C=CCn1c(=O)c2cnc(Nc3ccc(N4CCN(C)CC4)cc3)nc2n1-c1cccc(C(C)(C)O)n1 [MK1775] (first compound 0.08 µM, partner dose 0.02 µM) | 94.4% | 55.3% | 37.1% | 373% | 88.5% | 57.6% | 97% | 133% | 308% | 93.5% | 215% | 194% | 36.9% | 103% | 108% | 261% | 114% | 32% | 23.9%
Cc1cc(Nc2cc(N3CCN(C)CC3)nc(/C=C/c3ccccc3)n2)n[nH]1 + Cn1cncc1[C@@](N)(c1ccc(Cl)cc1)c1ccc2c(c1)c(-c1cccc(Cl)c1)cc(=O)n2C [tipifarnib] (first compound 0.04 µM, partner dose 0.01 µM) | 272% | 102% | 207% | 157% | 111% | 108% | 181% | 89.7% | 45.2% | 91.1% | 179% | 52.9% | 133% | 101% | 48.9% | 52.4% | 121% | 91.3% | 62.7%
O=C(O)[C@@H]1[O][Sb](=[O])([O][Sb]2(=[O])[O][C@H]([C@H](O)CO)[C@H](O)[C@H](C(=O)O)[O]2)[O][C@H]([C@H](O)CO)[C@@H]1O (some centres undefined) [stibogluconate] + C[C@@H]1CCN(C(=O)CC#N)C[C@@H]1N(C)c1ncnc2[nH]ccc12 [CP690550] (first compound 2 µM, partner dose 1 µM) | 127% | 80.4% | 70.6% | 80% | 39.7% | 91.4% | 94.2% | 72.8% | 95.9% | 83.2% | 103% | 76.9% | 61.6% | 64.2% | 57.2% | 94.8% | 91.8% | 33.8% | 30.2%
Nc1ccn([C@@H]2O[C@H](CO)[C@@H](O)C2(F)F)c(=O)n1 [gemcitabine] + Cc1ccc(NC(=O)c2cccc(N(C)C)c2)cc1NC(=O)c1ccc(O)cc1 [ZM336372] (first compound 0.0004 µM, partner dose 2 µM) | 308% | 155% | 197% | 130% | 133% | 50.4% | 94% | 136% | 221% | 133% | 146% | 190% | 31.3% | 107% | 62.4% | 180% | 47.3% | 69.6% | 169%
O=C(O)c1ccc2c(c1)nc(Nc1cccc(Cl)c1)c1ccncc12 + NC(=O)Nc1cc(-c2cccc(F)c2)sc1C(=O)N[C@H]1CCCNC1 [AZD7762] (first compound 0.4 µM, partner dose 0.02 µM) | 139% | 162% | 74.5% | 179% | 232% | 46.6% | 71.5% | 203% | 75.4% | 205% | 88% | 158% | 154% | 132% | 32.1% | 94.2% | 62.2% | 167% | 122%
CC(C)C[C@H](NC(=O)[C@H](Cc1ccccc1)NC(=O)c1cnccn1)B(O)O [Bortezomib] + Cc1ccc(NC(=O)c2cccc(N(C)C)c2)cc1NC(=O)c1ccc(O)cc1 [ZM336372] (first compound 0.001 µM, partner dose 2 µM) | 309% | 597% | 189% | 164% | 224% | 777% | 94.7% | 549% | 519% | 256% | 64.8% | 96.7% | 160% | 2520% | 134% | 101% | 171% | 41.9% | 265%
Cc1cc(Nc2cc(N3CCN(C)CC3)nc(/C=C/c3ccccc3)n2)n[nH]1 + C[C@@H]1CCN(C(=O)CC#N)C[C@@H]1N(C)c1ncnc2[nH]ccc12 [CP690550] (first compound 0.04 µM, partner dose 1 µM) | 103% | 75.5% | 66.8% | 91.9% | 145% | 68.1% | 167% | 77% | 100% | 97.7% | 174% | 78.3% | 79.7% | 118% | 96.5% | 96.7% | 221% | 102% | 72.8%
O=C(O)[C@@H]1[O][Sb](=[O])([O][Sb]2(=[O])[O][C@H]([C@H](O)CO)[C@H](O)[C@H](C(=O)O)[O]2)[O][C@H]([C@H](O)CO)[C@@H]1O (some centres undefined) [stibogluconate] + O=C(O)c1ccc(-c2c[nH]c3ncc(-c4ccccc4)cc23)cc1C1CCCC1 [GSK650394] (first compound 2 µM, partner dose 0.16 µM) | 76% | 152% | 91.1% | 79.1% | 154% | 694% | 71% | 112% | 138% | 102% | 117% | 73.3% | 73.4% | 94.9% | 87.6% | 95.1% | 43.8% | 65.3% | 71%

Reprinted at random: 2 records from the list.
SMILES | cleaved PARP positive nuclei fraction (501Mel) | cleaved PARP positive nuclei fraction (A101D) | cleaved PARP positive nuclei fraction (A2058) | cleaved PARP positive nuclei fraction (A375) | cleaved PARP positive nuclei fraction (C32) | cleaved PARP positive nuclei fraction (CBRC008) | cleaved PARP positive nuclei fraction (CBRC013) | cleaved PARP positive nuclei fraction (CBRC014) | cleaved PARP positive nuclei fraction (CBRC016) | cleaved PARP positive nuclei fraction (CBRC017) | cleaved PARP positive nuclei fraction (COLO792) | cleaved PARP positive nuclei fraction (COLO800) | cleaved PARP positive nuclei fraction (COLO829) | cleaved PARP positive nuclei fraction (G361) | cleaved PARP positive nuclei fraction (IPC-298) | cleaved PARP positive nuclei fraction (IST-MEL1) | cleaved PARP positive nuclei fraction (LB2518-MEL) | cleaved PARP positive nuclei fraction (LOXIMVI) | cleaved PARP positive nuclei fraction (MEL-HO)
O=C(O)[C@@H]1[O][Sb](=[O])([O][Sb]2(=[O])[O][C@H]([C@H](O)CO)[C@H](O)[C@H](C(=O)O)[O]2)[O][C@H]([C@H](O)CO)[C@@H]1O (some centres undefined) [stibogluconate] + CC(C)(C)c1cnc(CSc2cnc(NC(=O)C3CCNCC3)s2)o1 [SNS-032] (first compound 2 µM, partner dose 0.01 µM) | 84.8% | 82.2% | 91.4% | 116% | 99.2% | 71.4% | 223% | 64.8% | 154% | 70.7% | 59.1% | 106% | 55.9% | 68.4% | 166% | 26.5% | 40.5% | 20.2% | 54.7%
Cc1cc(Nc2cc(N3CCN(C)CC3)nc(/C=C/c3ccccc3)n2)n[nH]1 + CC1(C)NC(=O)N(c2ccc([N+](=O)[O-])c(C(F)(F)F)c2)C1=O [nilutamide] (first compound 0.04 µM, partner dose 1 µM) | 107% | 151% | 102% | 33.6% | 130% | 70% | 162% | 83.9% | 51.6% | 83.5% | 124% | 178% | 82% | 111% | 62.1% | 125% | 128% | 40.1% | 169%
